The values below are quoted from earlier work in US20130266658A1, “Method of producing a PPI-containing pharmaceutical preparation” (Temmler Werke GmbH, priority 2010, published 2013).

The conditions of the data set: aqueous solution, pH values below 2.

Take `COc1ccc2[nH]c([S+]([O-])Cc3ncc(C)c(OC)c3C)nc2c1` (stereo not shown) [omeprazole]: the half-life result is on record as “less than 10 minutes”.
